From paper PMC9908615
No constants are given. Whether binding was seen depends on the method and setting. In cells and extracts the contact can be indirect. Here binding means that the protein was enriched with, or labelled near, the bait; the list need not be complete.

Protein sequences, listed by entry. Tags and fused reporters are not part of them. Lines headed by an entry give the natural chain unless they say otherwise; changes in a name come on top.
UniProt Q7Z494: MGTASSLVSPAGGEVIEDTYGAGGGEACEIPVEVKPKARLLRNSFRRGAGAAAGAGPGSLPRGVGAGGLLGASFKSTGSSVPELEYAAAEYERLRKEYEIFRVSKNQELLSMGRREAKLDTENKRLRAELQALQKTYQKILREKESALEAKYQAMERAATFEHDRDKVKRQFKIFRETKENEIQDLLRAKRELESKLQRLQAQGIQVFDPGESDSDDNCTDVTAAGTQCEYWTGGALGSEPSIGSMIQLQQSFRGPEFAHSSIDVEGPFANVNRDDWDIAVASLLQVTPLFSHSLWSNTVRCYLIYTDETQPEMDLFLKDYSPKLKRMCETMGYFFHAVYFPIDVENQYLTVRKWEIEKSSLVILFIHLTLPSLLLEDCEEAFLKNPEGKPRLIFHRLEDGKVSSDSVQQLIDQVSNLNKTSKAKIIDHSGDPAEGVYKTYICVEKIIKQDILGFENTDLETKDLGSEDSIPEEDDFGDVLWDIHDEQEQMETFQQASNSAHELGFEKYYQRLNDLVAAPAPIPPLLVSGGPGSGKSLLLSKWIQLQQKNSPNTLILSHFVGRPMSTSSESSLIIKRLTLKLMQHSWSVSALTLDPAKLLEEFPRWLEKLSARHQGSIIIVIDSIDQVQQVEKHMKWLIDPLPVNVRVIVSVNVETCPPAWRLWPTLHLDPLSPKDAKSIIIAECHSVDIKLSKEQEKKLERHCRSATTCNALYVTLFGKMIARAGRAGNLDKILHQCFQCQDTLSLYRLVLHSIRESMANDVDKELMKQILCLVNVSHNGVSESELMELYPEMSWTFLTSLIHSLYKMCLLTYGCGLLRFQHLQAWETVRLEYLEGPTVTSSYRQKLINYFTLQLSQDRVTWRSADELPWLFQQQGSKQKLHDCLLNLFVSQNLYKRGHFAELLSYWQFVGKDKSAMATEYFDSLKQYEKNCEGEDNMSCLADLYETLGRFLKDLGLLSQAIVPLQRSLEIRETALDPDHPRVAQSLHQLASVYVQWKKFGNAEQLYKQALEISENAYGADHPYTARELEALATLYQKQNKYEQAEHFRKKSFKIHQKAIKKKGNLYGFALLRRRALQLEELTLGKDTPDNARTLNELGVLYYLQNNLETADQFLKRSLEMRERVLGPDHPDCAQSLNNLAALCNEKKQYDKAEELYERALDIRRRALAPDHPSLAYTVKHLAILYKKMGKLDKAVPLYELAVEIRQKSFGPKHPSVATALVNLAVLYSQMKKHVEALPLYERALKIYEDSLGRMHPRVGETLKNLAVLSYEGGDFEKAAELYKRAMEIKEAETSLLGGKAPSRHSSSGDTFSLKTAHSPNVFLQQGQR

B1: SH3BP4 (protein, UniProt Q921I6 1-962)
chain: MAAQRIRAANASGLPRCKSEGTLIDLSEGFSETSFNDVKVPSPSALLVDNPTPFGNAKEVIAIKDYCPNNFTTLKFSKGDHLYVLDTSGGEWWYAHNTTEMGYIPSSYVQPLNYRNSTLSDSGMIDNLPDSPEEVAKELDLLGGGWTDDQKESGRPYSNNPFWNGVRTNPFLNGNAQPSTDELNPKSTVDLLLFDTGTSSFTESSSATTNSTGNIFDELPATNGLQVEQPVKRDNPFFRSKRSYSLSELSVLQAKSDAPPTSSFFTGLKSPVPEQFQSREDFRTAWLNHRKLARSCHDLDLLGQSPGWGQTQAVETNIVCKLDSSGGSVQLPDTNISIHVPEGHVAPGETQQISMKALLDPPLDLNSDRSTSVSPVVEVKLSNLEVSTFIILEMKVSAEVKGDIFSKSTVVLQCLRSDSKEGPYVPIPLAYSYGDTIQVQLDNLEPCMYLAIVAQGPNILYPSTVWDFINKRVTVGLYGPKHIHPSFKTVVTIFGHDCAPKTLLVSEVTRQAPSPAPVALQLWGKHQFILSRPQDLRVCMFSNMTNYEVKANEQARVVRGFQMKLGKVSRLIFSVISQNPNELSDFTLRVQVKDDQDTILTQFCVQTPQPPPKSAIKPSGQRRFLKKNEVGKIILSPFVVTTKYPTFQDRPVSSLKFGKLLKTVVRQNKSHYLLEYKKGDVVALLSEERIRLKGQLWTKEWYIGYYQGKVGLVHTKNVLVVGKARPSLFSGPELSTSVLLEQILRPCKFLTYIYASVRTLLMENISSWRAFADALGYGNLPLTFFCRAELDSEPERVASVLEKLKEDCNNPDNKDRKSFQKELVMALLKMDCQGLVVRLIQDFVLLTTAVEVAQRWRELAEKLAKVSKQQMDAYESPHRDRNGVVDSEAMWKPAYDFLLTWSHQIGDSYRDVIQELHIGLDKMKNPITRRWKHLTGTLILVNSLDILRAAAFSPADHDDFVI
B2: CLINT1 (protein, UniProt Q99KN9 1-631)
chain: MLIFMYLYVCVCTCTCAFSLCSTNVVMNYSEIESKVREATNDDPWGPSGQLMGEIAKATFMYEQFPELMNMLWSRMLKDNKKNWRRVYKSLLLLAYLIRNGSERVVTSAREHIYDLRSLENYHFVDEHGKDQGINIRQKVKELVEFAQDDDRLREERKKAKKNKDKYVGVSSDSVGGFRYNERYDPEPKSKWDEEWDKNKSAFPFSDKLGELSDKIGSTIDDTISKFRRKDREDSPERCSDSDEEKKARRGRSPKGEFKDEEETVTTKHIHITQATETTTTRHKRTANPSKTIDLGAAAHYTGDKASPDQNASTHTPQSSAKPSVPSSKSSGDLVDLFDGSSQSAGGSADLFGGFADFGSAAASGNFPSQATSGNGDFGDWSAFNQAPSGPVASGGELFGSAPQSAVELISASQPALGPPPAASNSADLFDLMGSSQATMTSSQSMNFSLMSTNTVGLGLPMSRSQNTDMVQKSASKTLPSTWSDPSVNISLDNLLPGMQPSKPQQPSLNTMIQQQNMQQPLNVMTQSFGAVNLSSPSNMLPVRPQTNPLLGGPMPMNMPGVMTGTMGMAPLGNSAGMSQGMVGMNMNMGMSASGMGLSGTMGMGMPSMAMPSGTVQPKQDAFANFANFSK
B3: EPN2 (protein, UniProt Q8CHU3 1-595)
chain: MTTSSIRRQMKNIVNNYSEAEIKVREATSNDPWGPSSSLMTEIADLTYNVVAFSEIMSMVWKRLNDHGKNWRHVYKALTLLDYLIKTGSERVAQQCRENIFAIQTLKDFQYIDRDGKDQGINVREKSKQLVALLKDEERLKVERVQALKTKERMAQVATGVGSNQITFGRGSSQPNLSTSYSEQEYGKAGGSPASYHGSTSPRVSSELEQARPQTSGEEELQLQLALAMSREVAEQSSESVQTARGSKEERLRRGDDLRLQMALEESRRDTVKVPKKKEAKACCKPGSHSQQTTLLDLMDALPSSGPVTQKTEPWSAGASANQTNPWGGTVAPSNITDPWPSFGTKPAASVDPWGVPTTASTQSVPKNSDPWAASQQPASNAGKTTDAWGAAKPSSASGSFELFSNFNGTVKDDFSEFDNLRTSKKPAESGASVPPQDSRTTSPDLFESQSLTSASSKPSSARKTPESFLGPNAALVNLDSLVTKPAPPAQSLNPFLAPGAAAPAPVNPFQVNQPQPLTLNQLRGSPVLGSSASFGSGPGVETVAPMTSVAPHSSVGASGSSLTPLGPTAMNMVGSVGIPPSAAQSTGTTNPFLL
B4: EPN3 (protein, UniProt Q91W69 1-636)
chain: MTTSALRRQVKNIVHNYSEAEIKVREATSNDPWGPPSSLMSEIADLTFNTVAFAEVMGMVWRRLNDSGKNWRHVYKALTLLDYLLKTGSERVAHQCRENLYTIQTLKDFQYIDRDGKDQGVNVREKVKQVMALLKDEERLRQERTHALKTKERMALEGMGIGSGQLGYSRRSRGSPSSYTSASSSPRYASDLEQARPQTSGEEELQLQLALAMSREEAERPVPPASHRDEDLQLQLALSLSRQEHEKGVRSWKGDDSPVANGAEPAGQRRQRDREPEREERKEEEKLKTSQSSILDLADIFAPAPALPSTHCSADPWDIPGLRPNTEPSGSSWGPSADPWSPVPSGNALSRSQPWDLLPTLSSSEPWGRTPVLPSGPPIADPWAPSSPTRKLPSTGADPWGASMETSDTSALGGASPFDPFAKPLESTEPKESRDSAQALPTGKSPSTVELDPFGDSSPSCKQNGMKEPEALDLGVLGEALPQQPGKEARPCRTPESFLGPSASSLVNLDSLVKAPLAARTRNPFLTGLGVPSPTNPFGAGDQGRPTLNQMRTGSPALGLPPGGPVGAPVGSMTYSASLPLPLSSVPVGATLPASVSVFPQAGAFAPPPASLPQPLLPTSGPMGPLPPQAGTNPFL
B5: EPS15L1 (protein, UniProt Q60902 1-907)
chain: MAAPLVPLSQQIPGGNPLYESYYKQVDPAYTGRVGASEAALFLKKSGLSDIILGKIWDLADPEGKGFLDKQGFYVALRLVACAQSGHEVTLSSLSLTMPPPKFHDTSSPLMATQSSAETHWAVRVEEKAKFDGIFESLLPVNGLLSGDKVKPVLMNSKLPLDVLGRVWDLSDIDKDGHLDRDEFAVAMHLVYRALEKEPVPSILPPPLIPPSKRKKTVFAGAVPVLPASPPPKDSLRSTPSHGSVSSLNSTGSLSPKHSVKQPPVAWVVPVADKMRFDEIFLKTDLDLDGYVSGQEVKEIFMHSGLTQNLLAHIWALADTRQTGKLSKEQFALAMYFIQQKVSKGIDPPQVLSPDMVPPSERGTPIPDSSSTLASGEFTGVKELDDISQEIAQLQREKYSLEQDIREKEEAIRQKTSEVQELQNDLDRETSSLQELEAQKQDAQDRLDEMDQQKAKLRDMLSDVRQKCQDETQTISSLKTQIQSQESDLKSQEDDLNRAKSELNRLQQEETQLEQSIQAGRAQLETILRSLKCTQDDINQARSKLSQLQESHLEAHRSLEQYDQVPDGVSGTSLPDLATLNEGILLAERGGFGAMDDPFKNKALLFSNNSQELHPDPFQAEDPFKSDPFKGADPFKGDPFQSDPFSEQQTAATDPFGGDPFKESDPFHSSSSDDFFKKQTKNDPFTSDPFTKNPSLPSKLDPFESSDPFSSSSISSKGSDPFGTLDPFGSSSFSSAEGFADFSQMSKPPPSGPFSSSLGGTGFSDDPFKSKQDTPALPPKKPAPPRPKPPSGQSTPVSQLGSSDFPESPDPFQPLGADSGDPFQNKKGFGDPFSGKDPFAPSSSAKPPKTSSSGFADFTSFGNEEQQLAWAKRESEKAEQERLARLRRQEQEDLELAIALSKADMPA
B6: PICALM (protein, UniProt Q7M6Y3 1-660)
chain: MSGQSLTDRITAAQHSVTGSAVSKTVCKATTHEIMGPKKKHLDYLIQCTNEMNVNIPQLADSLFERTTNSSWVVVFKSLITTHHLMVYGNERFIQYLASRNTLFNLSNFLDKSGLQGYDMSTFIRRYSRYLNEKAVSYRQVAFDFTKVKRGADGVMRTMNTEKLLKTVPIIQNQMDALLDFNVNSNELTNGVINAAFMLLFKDAIRLFAAYNEGIINLLEKYFDMKKNQCKEGLDIYKKFLTRMTRISEFLKVAEQVGIDRGDIPDLSQAPSSLLDALEQHLASLEGKKIKDSTAASRATTLSNAVSSLASTGLSLTKVDEREKQAALEEEQARLKALKEQRLKELAKKPHTSLTTAASPVSTSAGGIMTAPAIDIFSTPSSSNSTSKLPNDLLDLQQPTFHPSVHAMSAAPQGASTWGDPFSATLDAVEDAIPSLNPFLTKSSGDVHLPIASDVSTFTTRTPTHEMFVGFSPSPVAQPHSSAGLNVDFESVFGNKSTNVAVDSGGFDELGGLLKPTVASQNQSLPVAKLPPNKLVSDDLDSSLANLVGNLGIGNGTTKNDVSWSQPGEKKLTGGSNWQPKVAPTTAWSAATMNGMHFPQYAPPVMAYPATTPTGMIGYGIPPQMGSVPVMTQPTLIYSQPVMRPPNPFGPVSGAQIQFM
B7: OFD1 (protein, UniProt Q80Z25 1-1017)
chain: MAQSNMPHKSDVLSQDELRKKLYQTFKDRGVLDTLQTQLRNQLIHELMHPVLSGEVKPPSISVEGSALLIGASNSLVADHLQRCGYEYSLSVFFPESGLAKEKIFTMQDLLQLIRINPSSSLYKSLISGFDKENKKGFLMSFLKELAEYYQAKESCDAETQTSTTFPSQVSLAEKFQLIDAQFADGFPHRSKLESLETKLNEYKKEVQHQLQVEMCHKLKYFREAEITKVKMEERRKYEKELAEFQNEFERTCQAKNEALISQEKNSLERIKKHREMESKEIYAQRQLLLNDIALLRGREAELKERIETFELTQKLQEEKIKSEAEALERREQNLKNIEDTYDQKLKTELLKYQLELKDDYITRTNKLLEEERKNKEKTIHLQEELTVINSKKEELSKSVKHMKEVELELESVKAQFLAISKQNHLLNEKVREMSDYSQLKEEKVELQAQNKLLKLQLEETRNENLRLLDRITQPPPELVIFQKELQKTEKAMELEHKDFETHRQALEKQLQSEIENSAQLRTQIAEYDASVKRLTVQVAELKSQLKQTQIALENEVYRNPKHSLIHSLSGLLLSGKMAPHSEDKSGDFLNVPLEQNKVIAGAVMSRVPPYVNTATEASSPESDFEFIASSTKAKVRELEQEAERLEKAFRTYYQRATQNPSTSPQPAKSPPSVNSVAALRSIASSSMDRPVSAEDRVVSEQPLGDMLKEEMSDMSKAFMGSVVSRPRRTSSSTRLSSTPHPKSRRSLDNEMYLEGLGRLHMTSSSPLLDRVSASPAASPSPCPERTAQASPVPSRHSFSGLPEQNACLYQRQTETQDKSELSNVDKQSLKDEKFEPPFRWNKTEQFEAEGLHPAGDMPGIDFAVATQSSRLISYDYPSAVQSQTGEQDEQELWELHMKERRQREEQRHNERQEALERERRELGKLEQERRMIEESLKMEMEEELEKSVQDQKDKSAHCENTLEKYMKIIQQRQEESNADKSSKKSGKECSLVDMMMPSDKDESSPGFSHEEPDDMW
B8: TOM1L2 (protein, UniProt Q5SRX1 1-507)
chain: MEFLLGNPFSTPVGQCLEKATDGSLQSEDWTLNMEICDIINETEEGPKDAIRALKKRLSGNRNYREVMLALTVLETCVKNCGHRFHLLVANRDFIDSVLVKIISPKNNPPTIVQDKVLALIQAWADAFRSSPDLTGVVHIYEELKRRGIEFPMADLDALSPIHTPQRSVPEMDPAATIPRSQTQPRTTAGTYSSPPPASYSTLQAPALSVTGPITANSEQIARLRSELDIVRGNTKVMSEMLTEMVPGQEDSSDLELLQELNRTCRAMQHRIVELISRVSNEEVTEELLHVNDDLNNVFLRYERFERYRSGRSVQNASNGVLSEVTEDNLIDLGPGSPAVVSPMVGSTAPPSSLSSQLAGLDLGTESVSGTLSSLQQCKPQDGFDMFAQTRGNSLAEQRKTVTYEDPQAVGGLASALDNRKQNSEMIPVAQPSVMDDIEVWLRTDLKGDDLEEGVTSEEFDKFLEERAKAAETVPDLPSPPTEAPAPASNTSTRKKPERSDDALFAL

Each binder was assayed against NPHP3-BioID2-RAD23B (aa185-409) (human) (UniProt Q7Z494) (assay: proximity labelling; NPHP3-BioID2-RAD23B (aa185-409) stably expressed in IMCD3 Flp-In cells, starvation medium 48 h, 10 uM biotin for the last 24 h; RIPA lysis, StrepTactin Superflow beads 3 h at 4°C, on-bead trypsin digestion, label-free MS; enrichment against the NPHP3-BioID2 control line; 6 replicates per cell line).

binding, binds:
B1
B2
B3
B4
B5
B6
B7
B8
